Data reported in patent US12414267B2, “Fluorinated aromatics and methods of using same” (3M INNOVATIVE PROPERTIES COMPANY, priority 2019, dated 2025).

Tests used:
[1] = Atmospheric lifetime from relative rate studies with hydroxyl radicals, chloromethane as reference; details: reaction with hydroxyl radicals relative to CH3Cl, FTIR
[2] = Global Warming Potential (GWP) calculated by IPCC AR5 methods from FTIR radiative efficiency and atmospheric lifetime; details: 100 yr integration time horizon; calculated from measured radiative efficiency and atmospheric lifetime

SMILES | Atmospheric Lifetime [1] | GWP (100 yrs) [2]
F/C(=C(/C(F)(F)F)C(F)(Oc1ccccc1)C(F)(F)C(F)(F)F)C(F)(C(F)(F)F)C(F)(F)F (stereo not drawn) [Example 4, (E)-((1,1,1,2,2,3,5,6,7,7,7-Undecafluoro-4,6-bis(trifluoromethyl)hept-4-en-3-yl)oxy)benzene+isomers] | 0.16 yrs | 4
FC(F)(F)C(=C(Oc1cc(C(F)(F)F)cc(C(F)(F)F)c1)C(F)(F)C(F)(F)F)C(F)(F)F [Example 6, 1-((1,1,1,4,4,5,5,5-Octafluoro-2-(trifluoromethyl)pent-2-en-3-yl)oxy)-3,5-bis(trifluoromethyl)benzene] | 0.74 yrs | 49
